Source: publication doi:10.1101/2022.12.06.519343
Results are given in words; binding and its absence hold for the method and conditions named. Some results given as binding are weak or reduced against the parent protein; the word gives no strength. Sequences can lack the tags named with a protein.

Biological target: T1, tag-free version of sExu531 (Drosophila melanogaster)
T1 chain: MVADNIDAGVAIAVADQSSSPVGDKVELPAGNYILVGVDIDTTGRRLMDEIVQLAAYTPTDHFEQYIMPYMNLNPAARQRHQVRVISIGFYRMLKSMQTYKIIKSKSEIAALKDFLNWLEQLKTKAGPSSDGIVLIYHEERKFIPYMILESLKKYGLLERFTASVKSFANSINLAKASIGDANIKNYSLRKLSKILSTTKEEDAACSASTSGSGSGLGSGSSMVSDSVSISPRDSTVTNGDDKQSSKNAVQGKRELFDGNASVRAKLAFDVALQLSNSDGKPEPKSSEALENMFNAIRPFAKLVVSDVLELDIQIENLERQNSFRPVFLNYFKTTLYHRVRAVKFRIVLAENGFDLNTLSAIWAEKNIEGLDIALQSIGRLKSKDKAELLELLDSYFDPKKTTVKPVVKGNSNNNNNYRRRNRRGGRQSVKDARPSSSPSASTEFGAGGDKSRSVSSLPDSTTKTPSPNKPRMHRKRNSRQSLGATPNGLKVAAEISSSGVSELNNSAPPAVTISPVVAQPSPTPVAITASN
Assay: SEC
Conditions: remark: other sources report otherwise

binding: binds
B1: tag-free version of sExu531 (protein)
chain: MVADNIDAGVAIAVADQSSSPVGDKVELPAGNYILVGVDIDTTGRRLMDEIVQLAAYTPTDHFEQYIMPYMNLNPAARQRHQVRVISIGFYRMLKSMQTYKIIKSKSEIAALKDFLNWLEQLKTKAGPSSDGIVLIYHEERKFIPYMILESLKKYGLLERFTASVKSFANSINLAKASIGDANIKNYSLRKLSKILSTTKEEDAACSASTSGSGSGLGSGSSMVSDSVSISPRDSTVTNGDDKQSSKNAVQGKRELFDGNASVRAKLAFDVALQLSNSDGKPEPKSSEALENMFNAIRPFAKLVVSDVLELDIQIENLERQNSFRPVFLNYFKTTLYHRVRAVKFRIVLAENGFDLNTLSAIWAEKNIEGLDIALQSIGRLKSKDKAELLELLDSYFDPKKTTVKPVVKGNSNNNNNYRRRNRRGGRQSVKDARPSSSPSASTEFGAGGDKSRSVSSLPDSTTKTPSPNKPRMHRKRNSRQSLGATPNGLKVAAEISSSGVSELNNSAPPAVTISPVVAQPSPTPVAITASN
